# Test results taken from PMC10689479.
# Amino acid sequences for entries named in this document (tags omitted). A change or cut given only in a name is not applied to a line headed by its entry. Residues count along the entry.
# UniProt Q9BTC0: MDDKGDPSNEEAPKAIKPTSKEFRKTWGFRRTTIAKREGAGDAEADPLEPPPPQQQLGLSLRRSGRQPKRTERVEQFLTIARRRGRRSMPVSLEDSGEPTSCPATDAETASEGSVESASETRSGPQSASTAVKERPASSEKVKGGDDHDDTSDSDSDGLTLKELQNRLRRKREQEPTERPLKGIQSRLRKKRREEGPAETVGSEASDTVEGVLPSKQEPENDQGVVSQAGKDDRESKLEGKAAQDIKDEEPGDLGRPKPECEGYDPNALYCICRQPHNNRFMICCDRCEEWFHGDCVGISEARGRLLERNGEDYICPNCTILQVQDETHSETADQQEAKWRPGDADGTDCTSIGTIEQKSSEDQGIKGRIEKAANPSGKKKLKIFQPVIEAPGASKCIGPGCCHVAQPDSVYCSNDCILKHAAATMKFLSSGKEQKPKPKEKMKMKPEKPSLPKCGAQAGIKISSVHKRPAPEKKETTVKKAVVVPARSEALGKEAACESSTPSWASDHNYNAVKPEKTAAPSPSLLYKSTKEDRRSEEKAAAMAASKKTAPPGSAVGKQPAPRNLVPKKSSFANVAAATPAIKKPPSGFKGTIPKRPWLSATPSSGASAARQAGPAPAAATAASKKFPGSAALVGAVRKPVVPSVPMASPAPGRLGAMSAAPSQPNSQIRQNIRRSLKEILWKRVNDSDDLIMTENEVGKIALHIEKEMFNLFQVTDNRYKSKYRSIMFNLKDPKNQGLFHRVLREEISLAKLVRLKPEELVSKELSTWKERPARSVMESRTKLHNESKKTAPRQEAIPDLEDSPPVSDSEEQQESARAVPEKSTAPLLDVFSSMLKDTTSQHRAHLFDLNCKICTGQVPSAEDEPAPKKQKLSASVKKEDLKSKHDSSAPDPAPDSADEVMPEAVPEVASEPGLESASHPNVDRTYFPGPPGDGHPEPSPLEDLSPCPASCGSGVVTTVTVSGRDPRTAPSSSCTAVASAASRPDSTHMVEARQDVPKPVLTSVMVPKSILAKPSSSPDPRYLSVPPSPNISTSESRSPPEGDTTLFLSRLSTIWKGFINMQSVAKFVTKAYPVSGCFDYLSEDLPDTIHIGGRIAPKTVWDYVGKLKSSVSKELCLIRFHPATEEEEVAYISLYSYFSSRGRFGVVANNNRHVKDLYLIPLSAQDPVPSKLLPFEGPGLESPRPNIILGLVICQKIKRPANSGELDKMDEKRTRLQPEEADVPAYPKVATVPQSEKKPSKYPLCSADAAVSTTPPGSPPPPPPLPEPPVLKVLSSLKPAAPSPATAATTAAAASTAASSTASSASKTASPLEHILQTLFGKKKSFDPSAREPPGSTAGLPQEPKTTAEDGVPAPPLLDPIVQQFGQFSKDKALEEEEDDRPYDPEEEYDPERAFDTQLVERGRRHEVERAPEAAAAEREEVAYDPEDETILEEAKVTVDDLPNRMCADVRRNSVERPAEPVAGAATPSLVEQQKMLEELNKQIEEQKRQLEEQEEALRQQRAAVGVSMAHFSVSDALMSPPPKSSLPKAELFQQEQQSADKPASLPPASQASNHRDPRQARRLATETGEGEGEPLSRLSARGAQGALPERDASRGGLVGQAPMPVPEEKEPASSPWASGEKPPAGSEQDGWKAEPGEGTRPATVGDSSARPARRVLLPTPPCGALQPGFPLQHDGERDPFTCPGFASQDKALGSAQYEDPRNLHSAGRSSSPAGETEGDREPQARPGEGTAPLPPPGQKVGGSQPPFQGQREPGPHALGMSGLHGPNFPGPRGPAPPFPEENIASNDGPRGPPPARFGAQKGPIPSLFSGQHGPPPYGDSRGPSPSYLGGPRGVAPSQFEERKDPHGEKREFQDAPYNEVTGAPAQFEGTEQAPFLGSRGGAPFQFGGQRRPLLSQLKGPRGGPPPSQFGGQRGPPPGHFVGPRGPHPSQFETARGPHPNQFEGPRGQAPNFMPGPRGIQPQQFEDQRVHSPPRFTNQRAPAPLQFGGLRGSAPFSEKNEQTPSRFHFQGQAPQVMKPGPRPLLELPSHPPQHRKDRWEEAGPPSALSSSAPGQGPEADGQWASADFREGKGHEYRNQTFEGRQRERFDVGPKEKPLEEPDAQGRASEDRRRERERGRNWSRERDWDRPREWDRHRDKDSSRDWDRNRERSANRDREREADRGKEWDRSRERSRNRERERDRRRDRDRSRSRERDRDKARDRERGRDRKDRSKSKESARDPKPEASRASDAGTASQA
# 2xHA DIDO3 without the IDR (C-terminal truncation): residues 1-2084 of Q9BTC0
# UniProt O75367: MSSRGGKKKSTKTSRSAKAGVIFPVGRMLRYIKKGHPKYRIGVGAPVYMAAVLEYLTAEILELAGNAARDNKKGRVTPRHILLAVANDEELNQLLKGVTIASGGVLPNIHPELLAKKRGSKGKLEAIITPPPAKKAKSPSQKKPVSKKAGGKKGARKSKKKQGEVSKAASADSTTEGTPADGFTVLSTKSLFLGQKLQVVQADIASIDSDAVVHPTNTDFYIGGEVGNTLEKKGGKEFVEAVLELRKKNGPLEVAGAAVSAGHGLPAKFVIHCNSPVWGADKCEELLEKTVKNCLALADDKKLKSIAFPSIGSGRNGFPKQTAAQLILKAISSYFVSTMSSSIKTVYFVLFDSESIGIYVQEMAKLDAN
# UniProt P09874: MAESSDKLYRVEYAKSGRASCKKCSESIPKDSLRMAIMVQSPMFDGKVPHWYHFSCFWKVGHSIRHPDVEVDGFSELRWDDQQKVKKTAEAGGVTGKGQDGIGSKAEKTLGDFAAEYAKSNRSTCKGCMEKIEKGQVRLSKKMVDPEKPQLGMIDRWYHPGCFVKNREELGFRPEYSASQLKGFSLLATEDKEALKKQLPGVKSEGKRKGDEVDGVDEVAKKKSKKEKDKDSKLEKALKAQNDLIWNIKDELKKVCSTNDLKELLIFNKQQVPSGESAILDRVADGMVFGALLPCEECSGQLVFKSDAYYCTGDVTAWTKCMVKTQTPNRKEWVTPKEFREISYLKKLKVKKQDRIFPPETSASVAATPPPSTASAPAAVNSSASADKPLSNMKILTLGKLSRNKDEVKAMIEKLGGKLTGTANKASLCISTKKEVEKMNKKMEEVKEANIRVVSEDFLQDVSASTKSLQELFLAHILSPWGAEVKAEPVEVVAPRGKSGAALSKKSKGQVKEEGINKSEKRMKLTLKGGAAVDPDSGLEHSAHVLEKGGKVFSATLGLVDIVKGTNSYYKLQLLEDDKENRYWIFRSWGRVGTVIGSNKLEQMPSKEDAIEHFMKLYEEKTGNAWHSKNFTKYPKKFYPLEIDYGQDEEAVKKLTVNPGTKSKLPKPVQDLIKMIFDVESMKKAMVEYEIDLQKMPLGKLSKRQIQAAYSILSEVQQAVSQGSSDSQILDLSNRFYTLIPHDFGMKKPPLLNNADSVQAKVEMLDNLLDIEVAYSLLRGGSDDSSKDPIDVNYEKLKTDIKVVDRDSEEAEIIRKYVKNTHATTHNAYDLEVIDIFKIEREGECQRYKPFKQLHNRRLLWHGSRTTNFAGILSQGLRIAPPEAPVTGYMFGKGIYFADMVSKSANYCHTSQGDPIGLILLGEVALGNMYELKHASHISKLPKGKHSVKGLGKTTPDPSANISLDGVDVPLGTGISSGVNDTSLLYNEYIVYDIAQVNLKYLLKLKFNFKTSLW
# UniProt Q92576: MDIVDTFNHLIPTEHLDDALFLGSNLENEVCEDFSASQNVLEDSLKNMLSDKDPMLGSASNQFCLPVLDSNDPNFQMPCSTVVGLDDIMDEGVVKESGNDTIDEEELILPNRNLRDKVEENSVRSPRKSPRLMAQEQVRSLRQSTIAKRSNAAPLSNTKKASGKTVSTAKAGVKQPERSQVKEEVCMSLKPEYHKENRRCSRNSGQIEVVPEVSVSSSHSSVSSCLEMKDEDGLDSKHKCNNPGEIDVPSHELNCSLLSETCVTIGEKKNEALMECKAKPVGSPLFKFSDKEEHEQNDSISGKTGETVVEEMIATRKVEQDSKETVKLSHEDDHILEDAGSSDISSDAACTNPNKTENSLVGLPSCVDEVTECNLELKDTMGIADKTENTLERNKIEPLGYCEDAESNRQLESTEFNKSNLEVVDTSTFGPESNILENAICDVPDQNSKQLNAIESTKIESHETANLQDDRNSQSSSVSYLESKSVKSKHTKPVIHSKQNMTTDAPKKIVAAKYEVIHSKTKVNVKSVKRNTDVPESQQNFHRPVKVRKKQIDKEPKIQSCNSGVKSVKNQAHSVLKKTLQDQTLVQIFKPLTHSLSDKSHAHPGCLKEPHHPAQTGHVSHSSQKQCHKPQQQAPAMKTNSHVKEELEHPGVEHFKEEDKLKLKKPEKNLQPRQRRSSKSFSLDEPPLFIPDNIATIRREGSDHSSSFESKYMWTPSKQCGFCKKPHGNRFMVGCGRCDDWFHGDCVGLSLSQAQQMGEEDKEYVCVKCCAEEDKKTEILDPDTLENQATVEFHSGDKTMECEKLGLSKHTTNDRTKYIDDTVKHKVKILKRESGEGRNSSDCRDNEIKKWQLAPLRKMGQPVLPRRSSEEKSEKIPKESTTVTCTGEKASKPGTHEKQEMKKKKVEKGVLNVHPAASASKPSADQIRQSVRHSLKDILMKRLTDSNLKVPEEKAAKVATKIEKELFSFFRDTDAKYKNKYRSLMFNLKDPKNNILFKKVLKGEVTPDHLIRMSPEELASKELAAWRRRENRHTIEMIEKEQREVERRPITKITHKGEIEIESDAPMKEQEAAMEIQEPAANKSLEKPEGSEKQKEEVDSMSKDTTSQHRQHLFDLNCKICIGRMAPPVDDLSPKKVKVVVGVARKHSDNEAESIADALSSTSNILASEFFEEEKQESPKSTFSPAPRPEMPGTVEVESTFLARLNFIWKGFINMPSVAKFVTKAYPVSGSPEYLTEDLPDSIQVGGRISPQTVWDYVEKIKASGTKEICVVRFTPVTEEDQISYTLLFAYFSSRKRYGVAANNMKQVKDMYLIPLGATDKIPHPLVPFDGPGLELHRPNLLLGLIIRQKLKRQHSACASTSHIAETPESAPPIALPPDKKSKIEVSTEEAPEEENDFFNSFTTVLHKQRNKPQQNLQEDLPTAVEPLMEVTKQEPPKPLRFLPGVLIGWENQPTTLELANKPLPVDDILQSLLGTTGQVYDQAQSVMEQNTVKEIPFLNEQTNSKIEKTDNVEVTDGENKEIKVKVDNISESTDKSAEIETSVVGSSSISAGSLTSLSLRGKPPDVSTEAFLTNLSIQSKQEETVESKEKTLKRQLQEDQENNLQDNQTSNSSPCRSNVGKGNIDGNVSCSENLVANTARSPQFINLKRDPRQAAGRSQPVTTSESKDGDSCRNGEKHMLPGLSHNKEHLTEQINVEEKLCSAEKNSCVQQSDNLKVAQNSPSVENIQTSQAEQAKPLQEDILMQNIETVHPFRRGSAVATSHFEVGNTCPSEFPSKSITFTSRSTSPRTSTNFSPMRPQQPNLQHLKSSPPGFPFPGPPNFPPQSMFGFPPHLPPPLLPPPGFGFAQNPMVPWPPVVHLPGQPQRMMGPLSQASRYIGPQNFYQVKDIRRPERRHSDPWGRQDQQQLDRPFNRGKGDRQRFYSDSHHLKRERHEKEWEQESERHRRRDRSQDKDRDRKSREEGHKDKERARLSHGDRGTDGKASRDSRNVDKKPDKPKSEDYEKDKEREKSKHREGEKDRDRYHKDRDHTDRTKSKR
# UniProt Q9H5H4: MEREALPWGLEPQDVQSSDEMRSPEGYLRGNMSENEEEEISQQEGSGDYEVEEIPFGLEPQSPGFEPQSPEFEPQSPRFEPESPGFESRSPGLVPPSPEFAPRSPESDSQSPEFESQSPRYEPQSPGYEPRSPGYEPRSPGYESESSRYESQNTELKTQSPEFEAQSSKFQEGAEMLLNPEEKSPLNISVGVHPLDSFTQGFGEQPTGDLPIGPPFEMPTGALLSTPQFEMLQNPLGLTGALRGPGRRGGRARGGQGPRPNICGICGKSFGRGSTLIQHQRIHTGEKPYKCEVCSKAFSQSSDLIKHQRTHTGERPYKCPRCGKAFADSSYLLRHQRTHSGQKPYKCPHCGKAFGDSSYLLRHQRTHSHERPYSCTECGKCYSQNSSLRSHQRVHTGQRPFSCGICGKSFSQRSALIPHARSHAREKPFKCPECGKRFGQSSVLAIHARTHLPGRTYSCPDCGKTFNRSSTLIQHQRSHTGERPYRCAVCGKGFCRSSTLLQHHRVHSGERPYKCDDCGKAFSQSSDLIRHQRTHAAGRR
# Results are given in words; binding and its absence hold for the method and conditions named. In cells and extracts the contact can be indirect. Some entries that bind do so weakly or less than the wild type.
# Legend:
# [1] = biological target: DIDO3 (endogenous) (human (endogenous in HEK293T)) (UniProt Q9BTC0); experiment: co-sedimentation; whole-cell lysate of wild-type HEK293T on a 15-40% sucrose gradient (50 mM Tris-Cl pH 8, 150 mM NaCl, 1% Triton, 1 mM DTT), 16 h at 4 °C; fractions by western blot; performed once
# 2xHA DIDO3 full-length = 2xHA DIDO3 full-length (UniProt Q9BTC0); experiment: co-IP; anti-HA co-immunoprecipitation of 2xHA DIDO3 full-length, C-terminal constructs and C-terminal truncations, western blot; performed once
# [2] = biological target: 2xHA DIDO3 without the IDR (C-terminal truncation) (UniProt Q9BTC0); experiment: as above
# FLAG-DIDO3 = FLAG-DIDO3 (UniProt Q9BTC0); experiment: co-IP; anti-FLAG M2 magnetic beads on lysates of HEK293T transfected with FLAG-DIDO constructs (150 mM NaCl, 0.1% Triton, benzonase), eluted with 3xFLAG peptide, western blot with antibodies against mass spectrometry hits; performed once
binding [1],binding (2xHA DIDO3 full-length),binding [2],binding (FLAG-DIDO3),Molecule
binds,,,,macroH2A.1 (from UniProt O75367 1-369)
binds,binds,binds,,PARP1 (from UniProt P09874 1-1014) (enzyme)
binds,binds,binds,binds,"PHD finger protein 3 (PHF3), endogenous (from UniProt Q92576 1-2039)"
,,,binds,ZNF768 (from UniProt Q9H5H4 1-540)
,,,binds,"HCFC2 (protein, UniProt Q9Y5Z7 1-792) MAAPSLLNWRRVSSFTGPVPRARHGHRAVAIRELMIIFGGGNEGIADELHVYNTATNQWFLPAVRGDIPPGCAAHGFVCDGTRILVFGGMVEYGRYSNELYELQASRWLWKKVKPHPPPSGLPPCPRLGHSFSLYGNKCYLFGGLANESEDSNNNVPRYLNDFYELELQHGSGVVGWSIPVTKGVVPSPRESHTAVIYCKKDSGSPKMYVFGGMCGARLDDLWQLDLETMSWSKPETKGTVPLPRSLHTASVIGNKMYIFGGWVPHKGENTETSPHDCEWRCTSSFSYLNLDTTEWTTLVSDSQEDKKNSRPRPRAGHCAVAIGTRLYFWSGRDGYKKALNSQVCCKDLWYLDTEKPPAPSQVQLIKATTNSFHVKWDEVSTVEGYLLQLSTDLPYQAASSDSSAAPNMQGVRMDPHRQGSNNIVPNSINDTINSTKTEQPATKETSMKNKPDFKALTDSNAILYPSLASNASNHNSHVVDMLRKNEGPHTSANVGVLSSCLDVRTVIPETSVSSTVSSTQTMVTQQTIKTESSSTNGAVVKDETSLTTFSTKSEVDETYALPATKISRVETHATATPFSKETPSNPVATVKAGERQWCDVGIFKNNTALVSQFYLLPKGKQSISKVGNADVPDYSLLKKQDLVPGTGYRFRVAAINGCGIGPFSKISEFKTCIPGFPGAPSAVRISKNVEGIHLSWEPPTSPSGNILEYSAYLAIRTAQIQDNPSQLVFMRIYCGLKTSCIVTAGQLANAHIDYTSRPAIVFRISAKNEKGYGPATQVRWLQGNNKKAPLN"
binds,,,,"DEK (protein, UniProt P35659 1-375) MSASAPAAEGEGTPTQPASEKEPEMPGPREESEEEEDEDDEEEEEEEKEKSLIVEGKREKKKVERLTMQVSSLQREPFTIAQGKGQKLCEIERIHFFLSKKKTDELRNLHKLLYNRPGTVSSLKKNVGQFSGFPFEKGSVQYKKKEEMLKKFRNAMLKSICEVLDLERSGVNSELVKRILNFLMHPKPSGKPLPKSKKTCSKGSKKERNSSGMARKAKRTKCPEILSDESSSDEDEKKNKEESSDDEDKESEEEPPKKTAKREKPKQKATSKSKKSVKSANVKKADSSTTKKNQNSSKKESESEDSSDDEPLIKKLKKPPTDEELKETIKKLLASANLEEVTMKQICKKVYENYPTYDLTERKDFIKTTVKELIS"
